# Assay results from publication PMC3622178.
# Sequences of proteins named here, by UniProt entry; tags and fusion partners are left off. A change or cut given only in a name is not applied to a line headed by its entry.
# UniProt Q9WTL8: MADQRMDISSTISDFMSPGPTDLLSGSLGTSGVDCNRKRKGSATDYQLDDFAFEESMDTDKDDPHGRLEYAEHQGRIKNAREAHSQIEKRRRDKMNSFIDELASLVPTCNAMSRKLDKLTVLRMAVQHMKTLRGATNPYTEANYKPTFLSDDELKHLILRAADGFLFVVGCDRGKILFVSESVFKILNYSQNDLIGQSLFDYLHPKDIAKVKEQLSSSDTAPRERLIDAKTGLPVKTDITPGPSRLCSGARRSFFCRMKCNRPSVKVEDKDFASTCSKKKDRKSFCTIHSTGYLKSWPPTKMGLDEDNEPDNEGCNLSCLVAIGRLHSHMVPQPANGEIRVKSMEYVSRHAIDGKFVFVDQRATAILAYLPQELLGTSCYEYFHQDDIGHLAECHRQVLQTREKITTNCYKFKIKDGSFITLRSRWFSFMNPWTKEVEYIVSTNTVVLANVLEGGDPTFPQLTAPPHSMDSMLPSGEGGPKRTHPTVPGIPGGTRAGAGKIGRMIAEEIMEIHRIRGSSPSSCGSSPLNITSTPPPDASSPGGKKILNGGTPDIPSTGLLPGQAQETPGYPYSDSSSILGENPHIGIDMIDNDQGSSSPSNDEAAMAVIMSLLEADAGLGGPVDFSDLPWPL
# UniProt O08785: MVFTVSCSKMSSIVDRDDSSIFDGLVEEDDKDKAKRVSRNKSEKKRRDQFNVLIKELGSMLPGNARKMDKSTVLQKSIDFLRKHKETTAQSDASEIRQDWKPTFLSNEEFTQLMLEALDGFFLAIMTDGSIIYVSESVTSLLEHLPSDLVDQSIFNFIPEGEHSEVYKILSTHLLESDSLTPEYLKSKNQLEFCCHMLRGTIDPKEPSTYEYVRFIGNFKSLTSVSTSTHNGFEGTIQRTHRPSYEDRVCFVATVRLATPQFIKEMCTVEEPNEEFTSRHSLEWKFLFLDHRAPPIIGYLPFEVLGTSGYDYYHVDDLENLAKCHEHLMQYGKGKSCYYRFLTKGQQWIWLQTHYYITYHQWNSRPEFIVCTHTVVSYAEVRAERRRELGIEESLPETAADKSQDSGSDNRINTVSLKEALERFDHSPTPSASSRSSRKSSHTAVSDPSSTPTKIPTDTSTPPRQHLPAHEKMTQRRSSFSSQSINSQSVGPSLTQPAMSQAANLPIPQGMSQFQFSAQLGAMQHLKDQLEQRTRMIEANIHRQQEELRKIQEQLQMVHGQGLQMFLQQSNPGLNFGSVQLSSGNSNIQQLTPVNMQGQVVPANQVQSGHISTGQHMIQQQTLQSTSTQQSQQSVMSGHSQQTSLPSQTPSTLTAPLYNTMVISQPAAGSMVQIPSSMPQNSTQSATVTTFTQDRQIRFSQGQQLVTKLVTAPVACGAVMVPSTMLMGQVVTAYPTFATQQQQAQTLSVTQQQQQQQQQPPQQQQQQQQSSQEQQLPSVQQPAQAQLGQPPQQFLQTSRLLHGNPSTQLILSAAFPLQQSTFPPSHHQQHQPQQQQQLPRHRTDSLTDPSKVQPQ
# Biological target: BMAL1 (mouse (endogenous in C57BL/6J liver)) (UniProt Q9WTL8)
# Experiment: native gel or EMSA; antibody supershift of protein complexes on 32P-labelled tandem E-box probes (Dbp EP, Dbp EI2, Per2 E', Per1 EP1); 15 ug liver nuclear protein (ZT8), 25 mM HEPES-KOH pH 7.6, 150 mM NaCl, 0.1 mM EDTA, 1 mM DTT; 16°C 30 min; anti-CLOCK or anti-BMAL1 added before the probe
substance,measurement,value
CLOCK^Δ19 (from UniProt O08785),binding,binds

# Results are given in words; binding and its absence hold for the method and conditions named. Binding can be weak; no strength is given.
